These are yes or no findings as the source states them, for the method shown. Some entries that bind do so weakly or less than the wild type.
Experiments:
[1] = molecular target: mRuby2 Fc-fusion (human) [IgG part: P01857]; test: cage formation verified by SEC at minimum
[2] = molecular target: sfGFP Fc-fusion (human) [IgG part: P01857]; test: cage formation verified by SEC at minimum
[3] = molecular target: human IgG1 Fc (human) [IgG part: P01857]; test: size exclusion chromatography of the design mixed with human IgG1 Fc, overlaid on the single components (UV 230, normalized)
[4] = molecular target: human IgG1 Fc (human) [IgG part: P01857]; test: SEC after mixing with human IgG1 Fc
[5] = molecular target: human IgG1 Fc (human) [IgG part: P01857]; test: negative-stain EM 3D reconstruction of the Fc AbC

Row | binding [1] | binding [2] | binding [3] | binding [4] | binding [5] | Binder
1 | binds | binds | binds | binds | binds | d2.4 (designed binder) MSDEEERNELIKRIREAAQRAREAAERTGDPRVRELARELARIAQIAFYLVLHDPSSSEVNEALKAVVKAIELAVRALEAAEKTGDPRVRELAREVVKAAVDVAEAAQAGLNDKLREVAEKALRLAKEALKEGDSTAAELAAEIARLAAKLAGDEDVLKKVKLVLEAIKLVKIVVENAKRKGDDSKEAAEAAVAAFLIVLAAAKLAGIASEEVLELAARLIKEVVENAQREGYDIAVAAIAAAVAFAVVAVAAAAADITSSEVLELAIRLIKEVVENAQREGYVILLAALAAAAAFVVVAAAAKRAGITSSETLKRAIEEIRKRVEEAQREGNDISEAARQAAEEFRKKAEELKGSLEHHHHHH
2 | binds | binds |  |  |  | i52.3 (designed binder) MSDEEERNELIKRIREAAQRAREAAERTGDPRVRELARELARLAQRAFYLVLHDPSSSDVNEALKLIVEAIEAAVRALEAAERAGDPELREDAREAVRLAVEAAEEVQRNPSSSTANLLLKAIVALAEALAAAANGDKEKFKKAAESALEIAKRVVEVASKEGDPEAVLEAAKVALRVAELAAKNGDKEVFKKAAESALEVAKRLVEVASKEGDPELVLEAAKVALRVAELAAKNGDKEVFQKAAASAVEVALRLTEVASKEGDSELETEAAKVITRVRELASKQGDAAVAILAETAEVKLEIEESKKRPQSESAKNLILIMQLLINQIRLLVLQIRMLDEQRQEGSLEHHHHHH
